This note sets out measurements from US20170290821A1 (priority 2014, published 2017).

This assay deals with influenza virus A/WSN RG#1-1 strains. The experiment in a line: microbe, parasite or virus in culture. It counts as cell-based. Particulars: unidentified influenza virus, HEK293, 48 h, read-out: IC50 (50% virus replication inhibitory concentration).

On to `C[C@@H]1CCN(C(=O)CC#N)C[C@@H]1N(C)c1ncnc2[nH]ccc12` [Compound J1, 3-((3R,4R)-4-methyl-3-(methyl(7H-pyrrolo[2,3-d]pyrimidin-4-yl)amino)piperidin-1-yl)-3-oxopropanenitrile], for which the IC50 is 31.6 µM.
